Reference: patent US12122830 (ABL BIO, dated 2024)
Results are given in words; binding and its absence hold for the method and conditions named. Some entries that bind do so weakly or less than the wild type.

By UniProt entry, the sequences of proteins in these tests, tags left out. Where a name states a change or a piece, a line headed by the entry shows the natural chain unless it says otherwise. Residues count along the entry.
UniProt Q9Z139: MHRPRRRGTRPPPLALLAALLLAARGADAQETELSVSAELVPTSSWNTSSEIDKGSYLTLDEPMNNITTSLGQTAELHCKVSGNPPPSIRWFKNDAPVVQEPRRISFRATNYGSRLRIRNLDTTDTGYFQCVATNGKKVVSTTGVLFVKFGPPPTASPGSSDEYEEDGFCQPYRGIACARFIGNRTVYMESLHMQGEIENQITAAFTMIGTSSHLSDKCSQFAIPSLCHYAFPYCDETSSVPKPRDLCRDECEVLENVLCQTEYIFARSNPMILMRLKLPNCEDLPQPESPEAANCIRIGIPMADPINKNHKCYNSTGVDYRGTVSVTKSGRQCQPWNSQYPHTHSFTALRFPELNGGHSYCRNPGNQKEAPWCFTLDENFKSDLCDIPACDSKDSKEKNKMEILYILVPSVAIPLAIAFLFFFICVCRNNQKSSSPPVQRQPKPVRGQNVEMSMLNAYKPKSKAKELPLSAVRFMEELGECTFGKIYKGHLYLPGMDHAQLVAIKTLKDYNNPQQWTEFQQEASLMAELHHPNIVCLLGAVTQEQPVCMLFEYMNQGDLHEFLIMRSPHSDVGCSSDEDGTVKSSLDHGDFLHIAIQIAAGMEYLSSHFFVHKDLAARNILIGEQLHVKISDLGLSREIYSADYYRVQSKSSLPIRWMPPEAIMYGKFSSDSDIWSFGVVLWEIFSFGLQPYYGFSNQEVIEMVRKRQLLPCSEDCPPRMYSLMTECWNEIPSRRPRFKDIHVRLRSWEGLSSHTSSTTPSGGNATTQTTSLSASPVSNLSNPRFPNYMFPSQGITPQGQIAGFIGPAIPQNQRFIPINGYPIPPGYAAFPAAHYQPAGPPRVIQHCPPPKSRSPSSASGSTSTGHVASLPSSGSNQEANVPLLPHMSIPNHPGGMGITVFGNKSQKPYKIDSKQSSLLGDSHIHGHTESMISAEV
mouse ROR1 expressed on the cell surface (CHO-mouse ROR1): residues 30-937 of Q9Z139
recombinant mouse ROR1 protein (Acrobiosystems, RO1-M5221): residues 30-406 of Q9Z139
UniProt Q01973: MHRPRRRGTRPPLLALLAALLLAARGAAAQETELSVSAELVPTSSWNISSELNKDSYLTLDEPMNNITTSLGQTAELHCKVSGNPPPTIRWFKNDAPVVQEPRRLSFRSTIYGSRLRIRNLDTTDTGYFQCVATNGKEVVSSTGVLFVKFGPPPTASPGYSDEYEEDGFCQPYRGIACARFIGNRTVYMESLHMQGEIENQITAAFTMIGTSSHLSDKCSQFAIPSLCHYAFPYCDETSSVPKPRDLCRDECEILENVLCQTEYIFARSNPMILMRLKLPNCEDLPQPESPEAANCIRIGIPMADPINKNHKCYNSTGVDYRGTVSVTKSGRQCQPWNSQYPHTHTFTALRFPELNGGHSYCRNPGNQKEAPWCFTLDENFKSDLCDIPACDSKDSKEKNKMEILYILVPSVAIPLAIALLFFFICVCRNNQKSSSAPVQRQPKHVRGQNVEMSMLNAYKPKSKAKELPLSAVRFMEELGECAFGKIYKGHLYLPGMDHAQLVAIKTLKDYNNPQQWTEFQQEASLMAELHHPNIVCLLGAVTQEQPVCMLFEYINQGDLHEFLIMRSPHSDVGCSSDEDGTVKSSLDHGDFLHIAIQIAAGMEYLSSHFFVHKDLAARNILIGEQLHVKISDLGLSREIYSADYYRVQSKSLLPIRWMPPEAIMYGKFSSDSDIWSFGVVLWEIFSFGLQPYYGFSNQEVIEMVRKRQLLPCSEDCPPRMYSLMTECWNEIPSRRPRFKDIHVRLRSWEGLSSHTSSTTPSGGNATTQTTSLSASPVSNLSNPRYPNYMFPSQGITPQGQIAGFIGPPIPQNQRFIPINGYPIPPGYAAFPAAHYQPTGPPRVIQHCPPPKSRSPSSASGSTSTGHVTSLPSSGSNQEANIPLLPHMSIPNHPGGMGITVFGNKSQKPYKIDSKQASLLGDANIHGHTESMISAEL
recombinant ROR1-His (Sino Biological, 13968-H08H): residues 30-406 of Q01973

Legend:
[1] = target: recombinant mouse ROR1 protein (Acrobiosystems, RO1-M5221) (mouse) (UniProt Q9Z139); assay: ELISA, IgG on coated recombinant mouse ROR1 (FIG. 4)
[2] = target: mouse ROR1 expressed on the cell surface (CHO-mouse ROR1) (mouse) (UniProt Q9Z139); assay: flow cytometry on CHO-mouse ROR1 cells
[3] = target: recombinant ROR1-His (Sino Biological, 13968-H08H) (human) (UniProt Q01973); assay: ELISA, IgG on coated human ROR1 (ROR1-Fc or ROR1-His)
[4] = target: T1, human ROR1 expressed on the cell surface (human, UniProt Q01973 30-937); assay: flow cytometry on MC38 human ROR1 cells (FIG. 7)
T1 construct: whole, on cells; On JeKo-1 and Mino cells and other cancer cell lines (endogenous) and on transfected CHO and MC38 cells; also called cell surface-expressed ROR1; CHO-human ROR1

[5] = target: mouse ROR1 expressed on the cell surface (CHO-mouse ROR1) (mouse) (UniProt Q9Z139); assay: flow cytometry on CHO-mouse ROR1 cells (FIG. 5)
[6] = target: recombinant ROR1-His (Sino Biological, 13968-H08H) (human) (UniProt Q01973); assay: ELISA, human ROR1 protein coated at 1 µg/ml (text: ROR1-Fc or ROR1-His, not said which), IgG titrated, HRP anti-Fab detection
[7] = target: T1, human ROR1 expressed on the cell surface; assay: flow cytometry on JeKo-1, Mino, CHO-human ROR1 and MC38-human ROR1 cells
[8] = target: recombinant ROR1-His (Sino Biological, 13968-H08H) (human) (UniProt Q01973); assay: ELISA, IgG on coated human ROR1 (ROR1-Fc or ROR1-His) (FIGS. 3a and 3b)
[9] = target: recombinant mouse ROR1 protein (Acrobiosystems, RO1-M5221) (mouse) (UniProt Q9Z139); assay: ELISA, IgG on coated recombinant mouse ROR1
[10] = target: T1, human ROR1 expressed on the cell surface; assay: flow cytometry on JeKo-1 and Mino cells (FIG. 6)
[11] = target: T1, human ROR1 expressed on the cell surface; assay: flow cytometry on CHO-human ROR1 cells (FIG. 5)

binding [1]: binds
binding [2]: binds
binding [3]: binds
binding [4]: binds
binding [5]: binds
binding [6]: binds
binding [7]: binds
binding [8]: binds
binding [9]: binds
binding [10]: binds
binding [11]: binds
B1: A2F2 M1 anti-ROR1 IgG antibody (antibody, V domains shown)
VH: EVQLLESGGGLVQPGGSLRLSCAASGFTFSDYYMSWVRQAPGKGLEWVSSISPDASNTYYADSVKGRFTISRDNSKNTLYLQMNSLRAEDTAVYYCAKNLRAFDYWGQGTLVTVSS
VL: QSVLTQPPPASGTPGQRVTISCSGSSSNIGSNTVYWYQQLPGTAPKLLIYANSQRPSGVPDRFSGSKSGTSASLAISGLRSEDEADYYCGSWDYSLSGYVFGGGTKLTVLG
